According to patent US20070134261A1, “Effectors of innate immunity” (priority 2001, published 2007):
At least one peptide structure holds a part that was inferred or is arguable (an end, a ring closure or a residue). No end group written: not given here.

Test system: human CD14+ monocytes
Assay: Human 21K DNA microarrays of CD14+ monocytes from PBMC stimulated with SEQ ID NO: 7 and/or LPS (Tables 69-72)
Type: cell-based

Sequence: KSRIVPAIPVSLL [SEQ ID NO: 7]
- Fold Change by LPS + SEQ 7 (gene Q8IZ41, Q96N04, human monocytes): 3.5 fold
- Fold Change SEQ ID NO: 7 (gene Q8IZC1): −1.6
- Fold Change by LPS + SEQ 7 (gene Q8IZW8): −1.6 fold
- Fold Change SEQ ID NO: 7 (gene Q8N1Q6): 2.4
- Fold Change by LPS + SEQ 7 (gene Q8N1Q9): 1.6 fold
- Fold Change by LPS + SEQ 7 (gene Q8N1W2): 1.8 fold
- Fold Change SEQ ID NO: 7 (gene Q8N2H5): 1.7
- Fold Change SEQ ID NO: 7 (gene Q8N2S5): 3.1
- Fold Change by LPS + SEQ 7 (gene Q8N2S5, human monocytes): 2.7 fold
- Fold Change by LPS + SEQ 7 (gene Q8N3J9): −1.6 fold
- Fold Change by LPS + SEQ 7 (gene Q8N3K5, human monocytes): 8.7 fold
- Fold Change by LPS + SEQ 7 (gene Q8N4J6, human monocytes): 9.1 fold
- Fold Change by LPS + SEQ 7 (gene Q8N4P3): 1.6 fold
- Fold Change SEQ ID NO: 7 (gene Q8N4S7): −1.7
- Fold Change by LPS + SEQ 7 (gene Q8N5H3): −1.5 fold
- Fold Change SEQ ID NO: 7 (gene Q8N5X0): 1.6
- Fold Change by LPS + SEQ 7 (gene Q8N6Q6, human monocytes): 18.8 fold
- Fold Change by LPS + SEQ 7 (gene Q8N6S2): −1.6 fold
- Fold Change by LPS + SEQ 7 (gene Q8N7I3): 1.6 fold
- Fold Change SEQ ID NO: 7 (gene Q8N7V2): −1.5
- Fold Change by LPS + SEQ 7 (gene Q8N8U9, Q8TF36, human monocytes): 17.7 fold
- Fold Change by LPS + SEQ 7 (gene Q8N9J0): 2.2 fold
- Fold Change by LPS + SEQ 7 (gene Q8N135, human monocytes): 53.9 fold
- Fold Change by LPS + SEQ 7 (gene Q8N336, human monocytes): 10.1 fold
- Fold Change by LPS + SEQ 7 (gene Q8N371): −1.5 fold
- Fold Change by LPS + SEQ 7 (gene Q8N958, human monocytes): 3.0 fold
- Fold Change by LPS + SEQ 7 (gene Q8NAA4): −1.9 fold
- Fold Change SEQ ID NO: 7 (gene Q8NAC1): 2.0
- Fold Change SEQ ID NO: 7 (gene Q8NBE8): 2.7
- Fold Change by LPS + SEQ 7 (gene Q8NBH1): 2.0 fold
- Fold Change SEQ ID NO: 7 (gene Q8NBM8): 1.7
- Fold Change by LPS + SEQ 7 (gene Q8NBM8): 1.8 fold
- Fold Change by LPS + SEQ 7 (gene Q8NC30): 1.7 fold
- Fold Change by LPS + SEQ 7 (gene Q8NC34, human monocytes): 3.5 fold
- Fold Change SEQ ID NO: 7 (gene Q8NDC9): −1.6
- Fold Change SEQ ID NO: 7 (gene Q8NDJ4): 1.6
- Fold Change SEQ ID NO: 7 (gene Q8NEQ3): 1.8
- Fold Change by LPS + SEQ 7 (gene Q8NEZ3): 1.8 fold
- Fold Change SEQ ID NO: 7 (gene Q8NG48): 2.3
- Fold Change by LPS + SEQ 7 (gene Q8NG51, human monocytes): 3.8 fold
- Fold Change by LPS + SEQ 7 (gene Q8NHE2, human monocytes): 8.7 fold
- Fold Change by LPS + SEQ 7 (gene Q8NHU6, human monocytes): 16.4 fold
- Fold Change SEQ ID NO: 7 (gene Q8TAZ0): −1.6
- Fold Change by LPS + SEQ 7 (gene Q8TB55): −1.9 fold
- Fold Change SEQ ID NO: 7 (gene Q8TBL3): 1.9
- Fold Change by LPS + SEQ 7 (gene Q8TDG4): −2.0 fold
- Fold Change by LPS + SEQ 7 (gene Q8TDS9, human monocytes): 9.6 fold
- Fold Change by LPS + SEQ 7 (gene Q8TEB0): 2.0 fold
- Fold Change by LPS + SEQ 7 (gene Q8TEB9): −1.9 fold
- Fold Change by LPS + SEQ 7 (gene Q8TEE6): 1.6 fold
- Fold Change by LPS + SEQ 7 (gene Q8TF23): 2.3 fold
- Fold Change by LPS + SEQ 7 (gene Q8TF25): 1.5 fold
- Fold Change by LPS + SEQ 7 (gene Q8TF72, Q96K23): −1.5 fold
- Fold Change by LPS + SEQ 7 (gene Q8WUC6, human monocytes): 104.7 fold
- Fold Change SEQ ID NO: 7 (gene Q8WUC7): 3.1
- Fold Change by LPS + SEQ 7 (gene Q8WUC7, human monocytes): 2.6 fold
- Fold Change SEQ ID NO: 7 (gene Q8WV60): 2.2
- Fold Change SEQ ID NO: 7 (gene Q8WVI0): 2.6
- Fold Change SEQ ID NO: 7 (gene Q8WVP6): 1.5
- Fold Change by LPS + SEQ 7 (gene Q8WWN1): −1.5 fold
- Fold Change SEQ ID NO: 7 (gene Q8WWN8): −1.7
- Fold Change by LPS + SEQ 7 (gene Q8WYL1): −1.5 fold
- Fold Change by LPS + SEQ 7 (gene Q9BPX8): −1.6 fold
- Fold Change by LPS + SEQ 7 (gene Q9BR68): −2.2 fold
- Fold Change SEQ ID NO: 7 (gene Q9BRJ9): 2.6
- Fold Change by LPS + SEQ 7 (gene Q9BRK2, human monocytes): 17.6 fold
- Fold Change by LPS + SEQ 7 (gene Q9BRX9, human monocytes): 4.9 fold
- Fold Change by LPS + SEQ 7 (gene Q9BSD4): −1.7 fold
- Fold Change by LPS + SEQ 7 (gene Q9BSW2): −1.5 fold
- Fold Change SEQ ID NO: 7 (gene Q9BTD3): −1.5
- Fold Change SEQ ID NO: 7 (gene Q9BU62): 1.5
- Fold Change by LPS + SEQ 7 (gene Q9BUJ0, human monocytes): 7.6 fold
- Fold Change by LPS + SEQ 7 (gene Q9BV79): −1.6 fold
- Fold Change SEQ ID NO: 7 (gene Q9BVM2): 1.5
- Fold Change by LPS + SEQ 7 (gene Q9BVN4): 1.6 fold
- Fold Change by LPS + SEQ 7 (gene Q9BWC9): −1.6 fold
- Fold Change by LPS + SEQ 7 (gene Q9BWJ2): 2.3 fold
- Fold Change SEQ ID NO: 7 (gene Q9BXY2): −1.8
- Fold Change SEQ ID NO: 7 (gene Q9BY88): 1.7
- Fold Change by LPS + SEQ 7 (gene Q9BYA4): −1.8 fold
- Fold Change by LPS + SEQ 7 (gene Q9BYE9, human monocytes): 6.9 fold
- Fold Change by LPS + SEQ 7 (gene Q9BYH8): 1.7 fold
- Fold Change by LPS + SEQ 7 (gene Q9BZS9): −1.8 fold
- Fold Change by LPS + SEQ 7 (gene Q9C0B6): 1.7 fold
- Fold Change by LPS + SEQ 7 (gene Q9C0D3): −1.6 fold
- Fold Change SEQ ID NO: 7 (gene Q9C0D5): −1.5
- Fold Change by LPS + SEQ 7 (gene Q9C0D5): −1.7 fold
- Fold Change by LPS + SEQ 7 (gene Q9C093): −2.3 fold
- Fold Change by LPS + SEQ 7 (gene Q9C098, human monocytes): 57.1 fold
- Fold Change SEQ ID NO: 7 (gene Q9GZT3): 2.4
- Fold Change SEQ ID NO: 7 (gene Q9H0J1): −1.6
- Fold Change SEQ ID NO: 7 (gene Q9H2V5): 1.5
- Fold Change by LPS + SEQ 7 (gene Q9H3H7): 1.9 fold
- Fold Change SEQ ID NO: 7 (gene Q9H5A9): 3.3
- Fold Change by LPS + SEQ 7 (gene Q9H5A9, human monocytes): 2.8 fold
- Fold Change SEQ ID NO: 7 (gene Q9H5D6): −2.0
- Fold Change by LPS + SEQ 7 (gene Q9H5P1, human monocytes): 8.6 fold
- Fold Change by LPS + SEQ 7 (gene Q9H6L9): 1.8 fold
- Fold Change by LPS + SEQ 7 (gene Q9H6R7, human monocytes): 17.1 fold
- Fold Change by LPS + SEQ 7 (gene Q9H6X1): 2.0 fold
- Fold Change SEQ ID NO: 7 (gene Q9H7M9): −1.5
- Fold Change by LPS + SEQ 7 (gene Q9H7Y2, human monocytes): 4.7 fold
- Fold Change by LPS + SEQ 7 (gene Q9H8U7, human monocytes): 2.7 fold
- Fold Change SEQ ID NO: 7 (gene Q9H8Y5): −1.9
- Fold Change by LPS + SEQ 7 (gene Q9H8Y6): −1.5 fold
- Fold Change by LPS + SEQ 7 (gene Q9H9C7): 1.6 fold
- Fold Change by LPS + SEQ 7 (gene Q9H9V9, human monocytes): 3.7 fold
- Fold Change by LPS + SEQ 7 (gene Q9H9X6, human monocytes): 16.0 fold
- Fold Change by LPS + SEQ 7 (gene Q9H095): 2.3 fold
- Fold Change SEQ ID NO: 7 (gene Q9H607): 1.9
- Fold Change SEQ ID NO: 7 (gene Q9H631): 2.5
- Fold Change by LPS + SEQ 7 (gene Q9H631, human monocytes): 3.6 fold
- Fold Change SEQ ID NO: 7 (gene Q9H679): 1.7
- Fold Change SEQ ID NO: 7 (gene Q9H693): 1.6
- Fold Change by LPS + SEQ 7 (gene Q9H697, human monocytes): 29.4 fold
- Fold Change by LPS + SEQ 7 (gene Q9H864, human monocytes): 2.4 fold
- Fold Change by LPS + SEQ 7 (gene Q9HBM0): 1.9 fold
- Fold Change SEQ ID NO: 7 (gene Q9HCE6): 2.5
- Fold Change by LPS + SEQ 7 (gene Q9HCK1): −1.6 fold
- Fold Change by LPS + SEQ 7 (gene Q9NPI0): 1.6 fold
- Fold Change by LPS + SEQ 7 (gene Q9NS00): −1.9 fold
- Fold Change SEQ ID NO: 7 (gene Q9NTD9): 1.7
- Fold Change by LPS + SEQ 7 (gene Q9NTF2): 2.0 fold
- Fold Change by LPS + SEQ 7 (gene Q9NTI6, human monocytes): 3.7 fold
- Fold Change by LPS + SEQ 7 (gene Q9NTK9): −1.7 fold
- Fold Change SEQ ID NO: 7 (gene Q9NUJ7): −1.5
- Fold Change by LPS + SEQ 7 (gene Q9NUK6): 1.7 fold
- Fold Change SEQ ID NO: 7 (gene Q9NUQ9): 1.8
- Fold Change by LPS + SEQ 7 (gene Q9NUQ9): 1.7 fold
- Fold Change SEQ ID NO: 7 (gene Q9NV64): −1.6
- Fold Change SEQ ID NO: 7 (gene Q9NVS3): 2.0
- Fold Change SEQ ID NO: 7 (gene Q9NW32): 1.6
- Fold Change by LPS + SEQ 7 (gene Q9NW81, human monocytes): 4.8 fold
- Fold Change by LPS + SEQ 7 (gene Q9NW83): 2.0 fold
- Fold Change SEQ ID NO: 7 (gene Q9NWD5): 2.7
- Fold Change by LPS + SEQ 7 (gene Q9NWQ8): 1.5 fold
- Fold Change SEQ ID NO: 7 (gene Q9NWV6): −1.5
- Fold Change by LPS + SEQ 7 (gene Q9NX89, human monocytes): 4.1 fold
- Fold Change by LPS + SEQ 7 (gene Q9NXD2, human monocytes): 4.1 fold
- Fold Change by LPS + SEQ 7 (gene Q9NXL6, human monocytes): 3.7 fold
- Fold Change SEQ ID NO: 7 (gene Q9NYY8): 1.5
- Fold Change by LPS + SEQ 7 (gene Q9NZ13, human monocytes): 8.0 fold
- Fold Change SEQ ID NO: 7 (gene Q9NZY8): 2.1
- Fold Change by LPS + SEQ 7 (gene Q9P0P9): 2.0 fold
- Fold Change SEQ ID NO: 7 (gene Q9P1E7): 2.9
- Fold Change by LPS + SEQ 7 (gene Q9P1G1, human monocytes): 7.4 fold
- Fold Change SEQ ID NO: 7 (gene Q9P1G3): 1.5
- Fold Change by LPS + SEQ 7 (gene Q9P1G3): 1.5 fold
- Fold Change by LPS + SEQ 7 (gene Q9P1V9): −2.1 fold
- Fold Change by LPS + SEQ 7 (gene Q9P2E5): 1.5 fold
- Fold Change by LPS + SEQ 7 (gene Q9P2I9): −1.7 fold
- Fold Change by LPS + SEQ 7 (gene Q9P021): −1.7 fold
- Fold Change by LPS + SEQ 7 (gene Q9P194): −1.7 fold
- Fold Change SEQ ID NO: 7 (gene Q9P233): 1.9
- Fold Change by LPS + SEQ 7 (gene Q9P233): 2.1 fold
- Fold Change SEQ ID NO: 7 (gene Q9UF01): 2.5
- Fold Change by LPS + SEQ 7 (gene Q9UF01): 2.0 fold
- Fold Change SEQ ID NO: 7 (gene Q9UFK2): 1.6
- Fold Change by LPS + SEQ 7 (gene Q9UJA5): 2.2 fold
- Fold Change by LPS + SEQ 7 (gene Q9ULQ0): 1.7 fold
- Fold Change by LPS + SEQ 7 (gene Q9UPP5): −1.9 fold
- Fold Change SEQ ID NO: 7 (gene Q9UPS8): 2.1
- Fold Change by LPS + SEQ 7 (gene Q9Y2F5): 1.9 fold
- Fold Change SEQ ID NO: 7 (gene Q9Y2M0): −1.7
- Fold Change by LPS + SEQ 7 (gene Q9Y3B9, human monocytes): 2.3 fold
- Fold Change by LPS + SEQ 7 (gene Q9Y3S6): −1.9 fold
- Fold Change by LPS + SEQ 7 (gene Q9Y3U6, human monocytes): 2.5 fold
- Fold Change SEQ ID NO: 7 (gene Q9Y4C1): 1.9
- Fold Change by LPS + SEQ 7 (gene Q9Y4C1): 1.7 fold
- Fold Change by LPS + SEQ 7 (gene Q9Y4M2): −1.9 fold
- Fold Change by LPS + SEQ 7 (gene Q9Y4T9, human monocytes): 48.3 fold
- Fold Change by LPS + SEQ 7 (gene Q9Y5L9): −1.5 fold
- Fold Change SEQ ID NO: 7 (gene Q9Y6U7): 1.6
- Fold Change by LPS + SEQ 7 (gene Q9Y547): −2.2 fold
- Fold Change by LPS + SEQ 7 (gene Q9Y627): 2.1 fold
- Fold Change by LPS + SEQ 7 (gene Q86SU1): 1.9 fold
- Fold Change by LPS + SEQ 7 (gene Q86T73): 1.8 fold
- Fold Change by LPS + SEQ 7 (gene Q86TW0, human monocytes): 6.8 fold
- Fold Change by LPS + SEQ 7 (gene Q86UG6): 1.7 fold
- Fold Change by LPS + SEQ 7 (gene Q86V45, human monocytes): 2.8 fold
- Fold Change by LPS + SEQ 7 (gene Q86W75): 1.5 fold
